PubChem BioAssay AID652243, Drosophila RNAi Screening Center – 2013

Assay: 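Knock-downs that decrease or increase androgen receptor reporter signal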 (primary screen)
Cell system: Drosophila S2R+ cells
Reagent: long dsRNA against Drosophila genes
Duration: 72 h (48 h, then 24 h hormone)
Challenge: synthetic androgen R1881 at 10 nM for 24 h
Measurement: 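Firefly light from an androgen-responsive reporter and Renilla control light per well, raw and unnormalised, for each of two replicates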
Direction: firefly reporter light: higher = more light from androgen-responsive reporter; Renilla control light: higher = more constitutive control signal (cell number, transfection)
Active means: 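Hit when the log firefly-to-Renilla ratio dropped or increased by a fixed fold versus the mean of GFP or LacZ controls across duplicate plates; lowering cut given as 1.5 and as 3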
Calls: active = hit: reporter lowered or raised; inactive = no hit
In all, the deposit lists about 24,000 reagents; below is an unselected part of those with a known target gene and a result. Of all reagents, 246 (1%) were called active. 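Plates not normalised; calls are printed but the firefly/Renilla ratio behind them is not deposited; fold cut for lowering reported inconsistently.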 Raw values are not corrected between plates. A number with no mark means an inactive call. Names joined by + are all predicted targets of the reagent. Reagent sequences are not shown. The record does not give: the amount of reagent.

predicted target | DRSC id | firefly reporter light, replicate 1 | firefly reporter light, replicate 2 | Renilla control light, replicate 1 | Renilla control light, replicate 2
CG5004 | DRSC19929 | 3.93e5 | 4.44e5 | 4.14e6 | 3.18e6
CG5004 | DRSC19930 | 2.27e5 (active) | 1.85e5 | 3.36e6 | 2.70e6
CG30287 | DRSC03875 | 2.00e5 | 78633 | 2.36e5 | 60307
CG14744 | DRSC06480 | 4.52e5 | 3.74e5 | 2.58e6 | 1.63e6
Ac76E (Adenylyl cyclase 76E) | DRSC09642 | 1.69e5 | 1.22e5 | 4.70e5 | 3.38e5
Ac76E (Adenylyl cyclase 76E) | DRSC09662 | 63793 | 65668 | 5.92e5 | 4.11e5
CG18269 | DRSC02660 | 1.04e5 | 1.36e5 | 1.12e6 | 1.06e6
CG8852 | DRSC00719 | 96836 | 80246 | 7.19e5 | 4.30e5
CG8852 | DRSC24465 | 7.82e5 | 5.96e5 | 1.05e6 | 8.46e5
CG10177 | DRSC14201 | 1.60e5 | 1.64e5 | 2.39e6 | 2.28e6
CG10177 | DRSC27888 | 6.76e5 | 4.82e5 | 2.58e6 | 1.72e6
CG5815 | DRSC14135 | 1.89e5 | 1.73e5 | 3.21e6 | 3.14e6
CG5815 | DRSC27943 | 1.21e6 | 8.69e5 | 2.92e6 | 1.09e6
Pdhb (Pyruvate dehydrogenase E1 beta subunit) | DRSC14420 | 1.51e5 | 1.04e5 | 9.85e5 | 7.16e5
Pdhb (Pyruvate dehydrogenase E1 beta subunit) | DRSC29695 | 4.23e5 | 2.95e5 | 1.81e6 | 1.18e6
Pdhb (Pyruvate dehydrogenase E1 beta subunit) | DRSC39078 | 9.89e5 | 9.84e5 | 1.99e6 | 2.80e6
Set2 (SET domain containing 2) | DRSC19765 | 83483 | 69553 | 5.94e5 | 5.55e5
ppk28 (pickpocket 28) | DRSC19919 | 3.25e5 | 1.88e5 | 2.40e6 | 1.22e6
Keap1 | DRSC15528 | 1.01e5 | 99644 | 8.13e5 | 7.79e5
Keap1 | DRSC29209 | 5.79e5 | 6.47e5 | 8.83e5 | 7.81e5
CG17048 | DRSC06649 | 3.13e5 | 2.54e5 | 2.19e6 | 1.80e6
CG15743 | DRSC19709 | 4.10e5 | 4.77e5 | 2.19e6 | 2.87e6
CG15743 | DRSC26389 | 2.99e5 | 2.48e5 | 5.23e5 | 7.30e5
CG30350 | DRSC07690 | 3.16e5 | 3.52e5 | 1.89e6 | 2.12e6
Obp73a (Odorant-binding protein 73a) | DRSC09907 | 3.64e5 | 3.98e5 | 2.82e6 | 2.80e6
eIF2Bbeta (eukaryotic translation initiation factor 2B subunit beta) | DRSC18465 | 3.05e5 | 2.72e5 | 3.52e6 | 3.57e6
eIF2Bbeta (eukaryotic translation initiation factor 2B subunit beta) | DRSC28495 | 2.69e5 | 6.23e5 | 6.34e5 | 1.44e6
CG9308 | DRSC04539 | 1.26e5 | 1.50e5 | 1.16e6 | 1.04e6
CG9308 | DRSC28962 | 6.69e5 | 5.66e5 | 1.91e6 | 1.33e6
CCT8 (Chaperonin containing TCP1 subunit 8) | DRSC07130 | 5.95e5 | 5.82e5 | 1.22e6 | 9.16e5
CCT8 (Chaperonin containing TCP1 subunit 8) | DRSC27213 | 3.24e5 | 3.20e5 | 8.81e5 | 7.28e5
CG14439 | DRSC17931 | 3.26e5 | 3.01e5 | 2.11e6 | 2.12e6
CG13708 | DRSC08317 | 1.89e5 | 2.77e5 | 2.31e6 | 2.59e6
CG13051 | DRSC09932 | 3.28e5 | 2.89e5 | 2.87e6 | 2.41e6
lncRNA:CR43337 (long non-coding RNA:CR43337) | DRSC07893 | 1.86e5 | 1.33e5 | 3.67e5 | 3.69e5
lncRNA:CR43337 (long non-coding RNA:CR43337) | DRSC25126 | 6.75e5 | 9.68e5 | 7.40e5 | 7.73e5
RpL10Aa (Ribosomal protein L10Aa) | DRSC15518 | 92032 | 78745 | 1.11e6 | 8.11e5
CG13151 | DRSC06276 | 2.37e5 | 2.01e5 | 1.55e6 | 1.67e6
Ucp4B + asRNA:CR43465 | DRSC02665 | 1.25e5 | 1.72e5 | 1.17e6 | 1.41e6
CG11145 | DRSC06049 | 3.46e5 | 2.64e5 | 2.28e6 | 1.24e6
Hmgcl (3-Hydroxymethyl-3-methylglutaryl-CoA lyase) | DRSC02051 | 65810 | 82702 | 6.50e5 | 8.66e5
CG7656 | DRSC10900 | 9247 | 36833 | 1.51e5 | 95215
CG13506 | DRSC04150 | 2.42e5 | 2.19e5 | 1.85e6 | 1.76e6
CG4455 | DRSC01983 | 6.29e5 | 7.69e5 | 1.63e6 | 1.78e6
CG4455 | DRSC21684 | 7.58e5 | 7.42e5 | 1.85e6 | 2.45e6
CG10911 | DRSC06008 | 63698 | 93449 | 1.46e6 | 1.46e6
capu (cappuccino) | DRSC00434 | 84331 | 77479 | 1.05e6 | 7.80e5
capu (cappuccino) | DRSC27884 | 6.34e5 | 4.14e5 | 1.56e6 | 1.03e6
CG42450 | DRSC20022 | 2.34e5 | 1.32e5 | 5.39e5 | 2.48e5
CG42450 | DRSC22751 | 5.68e5 | 1.02e6 | 1.45e6 | 1.66e6
CG1979 | DRSC12495 | 50488 | 63013 | 3.45e5 | 4.00e5
CG1979 | DRSC24707 | 8.04e5 | 5.83e5 | 6.62e5 | 6.59e5
CG8142 | DRSC20086 | 1.39e5 | 1.64e5 | 9.95e5 | 1.06e6
CG8142 | DRSC26373 | 3.58e5 | 4.42e5 | 8.22e5 | 7.56e5
Vps39 (Vacuolar protein sorting 39) | DRSC16205 | 1.01e5 | 69028 | 5.22e5 | 5.66e5
Trf2 (TATA box binding protein-related factor 2) | DRSC18727 | 9.76e5 | 1.05e6 | 1.48e6 | 1.07e6
Trf2 (TATA box binding protein-related factor 2) | DRSC29152 | 1.53e6 | 1.10e6 | 4.56e5 | 4.35e5
CG9135 | DRSC03144 | 8.61e5 | 1.17e6 | 2.27e6 | 2.09e6

Entries listed so far whose target name starts with K or k (2):
predicted target | DRSC id | firefly reporter light, replicate 1 | firefly reporter light, replicate 2 | Renilla control light, replicate 1 | Renilla control light, replicate 2
Keap1 | DRSC15528 | 1.01e5 | 99644 | 8.13e5 | 7.79e5
Keap1 | DRSC29209 | 5.79e5 | 6.47e5 | 8.83e5 | 7.81e5
